From ChEMBL document CHEMBL3988442, “University of Dundee, Small-Polar-MMV Screening Library” (2021).

Amino acid sequences for entries named in this document (tags omitted).
UniProt E9BF75, entry or part of it: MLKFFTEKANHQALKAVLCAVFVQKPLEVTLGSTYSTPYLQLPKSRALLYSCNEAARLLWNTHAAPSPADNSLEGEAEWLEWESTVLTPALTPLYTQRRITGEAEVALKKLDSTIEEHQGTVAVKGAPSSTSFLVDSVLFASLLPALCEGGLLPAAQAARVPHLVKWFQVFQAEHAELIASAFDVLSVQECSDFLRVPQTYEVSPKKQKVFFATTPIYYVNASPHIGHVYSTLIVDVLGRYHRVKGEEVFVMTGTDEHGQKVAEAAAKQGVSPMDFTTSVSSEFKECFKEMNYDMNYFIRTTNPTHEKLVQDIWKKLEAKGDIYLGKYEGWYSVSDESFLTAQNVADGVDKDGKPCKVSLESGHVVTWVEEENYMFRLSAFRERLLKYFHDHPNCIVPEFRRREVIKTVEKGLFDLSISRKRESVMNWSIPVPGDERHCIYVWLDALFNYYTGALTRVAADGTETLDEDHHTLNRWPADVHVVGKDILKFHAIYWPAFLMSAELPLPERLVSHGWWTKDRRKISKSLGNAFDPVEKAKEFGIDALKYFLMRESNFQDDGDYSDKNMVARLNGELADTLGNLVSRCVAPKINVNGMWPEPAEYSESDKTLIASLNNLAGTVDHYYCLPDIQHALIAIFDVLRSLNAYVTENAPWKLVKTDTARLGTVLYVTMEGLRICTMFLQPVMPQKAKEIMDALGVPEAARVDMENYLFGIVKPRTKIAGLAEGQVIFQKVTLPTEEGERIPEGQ

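Methionyl-tRNA synthetase (putative), Leishmania donovani (UniProt E9BF75). Primary screen of methionyl-tRNA synthetase; the read-out is not stated. The test concentration is not given. The values are filed as inhibition. About 68,000 compounds were tested under these conditions; 0.035% (about 24) showed 50% or more at least once.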

Results are percentages, as filed. The controls that fix the scale are not given in the record; negative values are as filed. Compounds were drawn at random from those tested, without regard to their results.

structure	Inhibition
CC1(C)Cc2ccc(C(=O)NC3CCOCC3)c(O)c2O1	13.24
CC(C(=O)Nc1ccon1)n1ccc(C(F)(F)F)n1 (stereo not drawn)	4.533
Cc1ccc2c(c1)C(NC1CCN(C)CC1)CCCO2 (stereo not drawn)	1.449
CCS(=O)(=O)CCNC(=O)c1ccc(-c2ccc(C)cc2)cc1F	13.39
Cc1nc(-c2ncc(C(=O)NCCNc3ncccc3C)c(O)n2)cs1	20.62
O=C(COc1ccccc1)N1CCC[C@]2(C[C@@H](OCC3CC3)CO2)C1	12.06
Cc1cccc(-c2noc(CN3CCc4nn(C)c(=O)cc4C3)n2)c1	-2.797
O=C(CS(=O)(=O)Cc1cc(Cl)c2c(c1)OCCCO2)NCC1CC1	23.38
Cc1nc(CNC(=O)NCC(O)c2cccc(Cl)c2)cs1 (stereo not drawn)	2.536
COCCn1ccnc1C1CCCN(C(=O)c2cc(F)cc(F)c2)C1 (stereo not drawn)	21.49
CCn1cc(N)c(-c2nnc3n2CCC3)n1	1.351
Cc1noc(C)c1CN1CCc2ncnc(-c3cccnc3)c2CC1	21.19
CCn1cnnc1CN(C)Cc1nc(-c2cc(OC)ccc2F)oc1C	8.58
CN(Cc1ccsc1)C(=O)CN1CCCCC1Cn1cccn1 (stereo not drawn)	16.15
CC(C)(C)n1cc(CNC2CCN(C(=O)c3ccoc3)CC2)cn1	-0.5013
Cc1cc(NC2CC3(CCN(Cc4ncccc4F)C3)C2)ncn1 (stereo not drawn)	9.119
N#Cc1c[nH]c(C(=O)N(Cc2ccc(O)cc2)CC2CC2)c1	15.18
CC(C)(CNc1ccccc1S(=O)(=O)C(F)F)N1CCOCC1	11.08
CCCOc1ccc(Cl)cc1CNc1ncnc2oc(C)nc12	20.97
Cc1ccc(C(=O)N2CCN(CCC(C)(C)C)CC2)c(=O)[nH]1	10.43
COCc1ccccc1C(=O)N1CCN(C2=NCC(C)(C)S2)CC1	10.34
NS(=O)(=O)N1CCC(CSc2ccccc2)C1 (stereo not drawn)	7.447
O=C(Cn1cnnn1)Nc1ccc(F)cc1OCC1CC1	13.04
CC(C)N(Cc1cccc(F)c1)Cc1nc2c(cnn2C)c(=O)[nH]1	12.88
COc1cc(C(=O)NS(=O)(=O)c2ccc(C#N)cc2)ccc1C	2.514
CC(C)(CO)Nc1c(NCc2ccncc2)c(=O)c1=O	14.58
CNC(=O)c1ccc2c(c1O)OC(C)(C)C2	16.62
COC(C)c1cccc(NCc2ccsc2)c1 (stereo not drawn)	10.57
Cc1noc(C)c1C(=O)N(C)C(C)c1ccncc1 (stereo not drawn)	8.207
CCc1ncc(CN(CCc2ccccc2)Cc2cccs2)cn1	16.82
Cc1noc(C)c1CN1C[C@@H]2C[C@H](C(=O)NCC3CC3)N(C)[C@@H]2C1	8.013
Cc1nn(C)c(Cl)c1C1CCCN1CC(=O)N1CCOCC1 (stereo not drawn)	5.222
CN(Cc1ccco1)C[C@H]1OC[C@@H]2CCN(Cc3cccs3)C[C@@H]21	7.95
COc1cc(CNCc2ccnc(N3CCCCC3)c2)cc(OC)c1	23.19
COc1ccc(C(C)N2CCC(NS(C)(=O)=O)CC2)cc1Cl (stereo not drawn)	2.452
CCOCC1COCCC12CCN(C(=O)CCOC)CC2 (stereo not drawn)	15.27
N#Cc1cccc(CN2C[C@H](NC(=O)C3CC3)[C@H]3OCCC[C@H]32)c1	10.58
COc1cc(C)nc(N2CCN(C(=O)CNC(C)(C)C)CC2)n1	5.521
CNc1ccnc(N(C)Cc2cc(-c3cccs3)n[nH]2)n1	14.05
CCOc1nnc(CN2CCC(N(C)Cc3noc(C)n3)C2)s1 (stereo not drawn)	9.449
Cc1ccc(C(=O)NS(=O)(=O)c2cc(F)ccc2F)c(=O)[nH]1	13.41
Cc1nnc(NC(=O)NCc2cccnc2N(C)C)s1	9.312
CC1=N[C@@]2(CC[C@@H]3CN(Cc4ccccc4F)C[C@@H]32)C(=O)N1C	15.71
CCCn1cc(C(=O)N2CCCC(Cc3nccs3)C2)cn1 (stereo not drawn)	7.039
Cc1ccccc1-n1cnnc1SCC1CCCCO1 (stereo not drawn)	3.373
CN1CCCc2c1nc1c(c2N)CCCC1	-0.5362
CNc1nc(CNC(=O)Nc2cccc(F)c2C)cs1	15.31
O[C@@H]1CN(Cc2cnccn2)C[C@H]1Oc1ccccc1	19.35
Cc1nn(C)c2c(=O)n(CC(=O)NCc3ccc(N(C)C)cc3)ccc12	8.527
CO[C@H]1C[C@@H]2CN(C(=O)Cc3ccc(C)s3)C[C@@H]2C1	-21.81
O=c1[nH]nc2nc(N3CCCC3)ccn12	14.91
CCc1cn[nH]c1C1CCCN(C(=O)c2cc(C(C)C)on2)C1 (stereo not drawn)	7.258
CCOCCCNC(=O)CN(c1ccc(F)c(F)c1)S(C)(=O)=O	12
COCCN1CCC(NC(=O)C/C=C/c2ccc(C(C)C)cc2)CC1	13.6
Cc1ccn(CCC(=O)N2CCCC2c2nnc(-c3scnc3C)o2)n1 (stereo not drawn)	8.385
CC(C)OCCCN(CC(=O)N1CCNCC1)C(=O)c1ccc(F)cc1	9.329
CC(CN1CCOCC1)N(Cc1ccccc1)Cc1ccncc1 (stereo not drawn)	7.317
N#Cc1cn(C2CC2)c(=O)n(Cc2ncc(-c3cccs3)o2)c1=O	9.375
CN(C)C(=O)Cc1ccc(NC(=O)NC2CC2)cc1	7.833
COCc1cc(N(C)Cc2c(C)nn(C)c2C)n2nccc2n1	-2.941

The first 6 entries again:

| structure | Inhibition |
|---|---|
| `CC1(C)Cc2ccc(C(=O)NC3CCOCC3)c(O)c2O1` | 13.24 |
| `CC(C(=O)Nc1ccon1)n1ccc(C(F)(F)F)n1` (stereo not drawn) | 4.533 |
| `Cc1ccc2c(c1)C(NC1CCN(C)CC1)CCCO2` (stereo not drawn) | 1.449 |
| `CCS(=O)(=O)CCNC(=O)c1ccc(-c2ccc(C)cc2)cc1F` | 13.39 |
| `Cc1nc(-c2ncc(C(=O)NCCNc3ncccc3C)c(O)n2)cs1` | 20.62 |
| `O=C(COc1ccccc1)N1CCC[C@]2(C[C@@H](OCC3CC3)CO2)C1` | 12.06 |